Measured values reported in patent publication US20020061902A1, “Treatment method” (SCHERING CORPORATION, priority 2000, published 2002).

Test system: eosinophils

## Clc1ccc2c(c1)CCc1cccnc1C2=C1CCNCC1 [Desloratadine, desloratadine]
10 μM desloratadine, 10 ng/mL PMA
  PMA-stimulated superoxide generation: attenuated
Desloratadine 0.1 to 10 μM, concentration-dependent
  spontaneous superoxide generation: attenuated
